Results taken from the supplement of paper PMC12067093, “Discovery and optimisation of a covalent ligand for TRIM25 and its application to targeted protein ubiquitination” (Chemical Science, 2025).
The list shows a part of the results.

compound: CC1Cc2ccccc2N1C(=O)C1CCCN(C1)C(=O)CCl (mixture of isomers) [TRIM25 ligand 11 (diastereomer mixture)]; assay: probe-labelled cysteine peptide fold change vs DMSO (competition) (log2 fold change); higher = less target engagement (more negative = stronger competition); details: 50 µM; THP-1; incubation time: 4 h
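Further: competitive chemoproteomic profiling in live THP-1 cells with an iodoacetamide desthiobiotin (IA-DTB) probe, comparing probe-labelled peptide intensities in compound-treated cells against DMSO-treated controls.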

Target | probe-labelled cysteine peptide fold change
CLUH_O75153_588_TFPPDLNFLPVPGEELPEECAR (UniProt O75153) | 0.0614
CIT_O14578_105_SLVGCGHFAEVQVVR (UniProt O14578) | 0.0477
CKAP5_Q14008_1768_TLLHTLCK (UniProt Q14008) | -0.0622
CIB1_Q99828_134_LVNCLTGEGEDTR (UniProt Q99828) | -0.157
CLTC_Q00610_1257_EVCFACVDGK (UniProt Q00610) | 0.0733
CHML_P26374_366_NFLQCLGR (UniProt P26374) | 0.247
CLTC_Q00610_926+934_GQCDLELINVCNENSLFK (UniProt Q00610) | 0.0843
CHAMP1_Q96JM3_16_LECDHCSFR (UniProt Q96JM3) | 0.118
CLASP1_Q7Z460_453_LIPVITSNCTSK (UniProt Q7Z460) | 0.144
CLTCL1_P53675_778_LTDQLPLIIVCDR (UniProt P53675) | 0.417
CIAO1_O76071_19_CWFLAWNPAGTLLASCGGDRR (UniProt O76071) | -0.477
CLUH_O75153_753_DAAAFLLSCQIPGLVK (UniProt O75153) | -0.27
CFAP20_Q9Y6A4_160_VQIHANCR (UniProt Q9Y6A4) | 0.19
CHD4_Q14839_1594_STAPETAIECTQAPAPASEDEK (UniProt Q14839) | -0.0977
CLPTM1_O96005_308_VSFCPLSLWR (UniProt O96005) | 0.102
CFL1_P23528_139_HELQANCYEEVK (UniProt P23528) | -0.169
CLASP1_Q7Z460_864_QTEDVAEVLNHCASSNWSER (UniProt Q7Z460) | 0.379
CHAMP1_Q96JM3_41_GTDYENVQIHMGTIHPEFCDEMDAGGLGK (UniProt Q96JM3) | -0.0855
CHD1_O14646_1417_TFSICK (UniProt O14646) | 0.0405

Target | probe-labelled cysteine peptide fold change
CHURC1_Q8WUH1_88_SLKEEDGEEIVTYDHLCK (UniProt Q8WUH1) | -0.00733
CHI3L1_P36222_41_EGDGSCFPDALDR (UniProt P36222) | -0.042
CLPB_Q9H078_267_GCTALHYAVLADDYR (UniProt Q9H078) | 0.3
CFL1_P23528_39_AVLFCLSEDKK (UniProt P23528) | -0.146
CHURC1_Q8WUH1_44+60_GNTCLENGSFLLNFTGCAVCSK (UniProt Q8WUH1) | -0.0259
CHD4_Q14839_1018+1019_CCNHPYLFPVAAMEAPK (UniProt Q14839) | -0.0493
CHD8_Q9HCK8_1947_HGVSQTDCNIMQDPDFSFLAAR (UniProt Q9HCK8) | -0.198
CIAPIN1_Q6FI81_285_CASCPYLGMPAFKPGEK (UniProt Q6FI81) | -0.178
CHD1L_Q86WJ1_156_FHVLLTTYEICLK (UniProt Q86WJ1) | 0.177
CHKB_Q9Y259_85_CSLPDHLPSVGEEPREVLLR (UniProt Q9Y259) | -0.0104
CIAO1_O76071_308_VFQEDPNSDPQQPTFSLTAHLHQAHSQDVNCVAWNPK (UniProt O76071) | -0.188
CLASP2_O75122_1184_VLCPIIQTADYPINLAAIK (UniProt O75122) | 0.0662
CES1_P23141_285_TTTSAVMVHCLR (UniProt P23141) | 0.0709
CLASP2_O75122_221_LIPLITSNCTSK (UniProt O75122) | 0.0133
CKAP5_Q14008_1019_STPTDLILCVPHLYSCLEDR (UniProt Q14008) | 0.159
CINP_Q9BW66_92_LCEELQATLDGLTK (UniProt Q9BW66) | 0.246
CHD8_Q9HCK8_1902_EQVLCHPLLEDR (UniProt Q9HCK8) | -0.143
CIC_Q96RK0_336_APGSSSCGAER (UniProt Q96RK0) | -0.168
CLP1_Q92989_338_VGAPTIPDSCLPLGMSQEDNQLK (UniProt Q92989) | 0.206

As entered above:
probe-labelled cysteine peptide fold change, CLUH_O75153_588_TFPPDLNFLPVPGEELPEECAR (UniProt O75153) reads 0.0614
probe-labelled cysteine peptide fold change, CKAP5_Q14008_1019_STPTDLILCVPHLYSCLEDR (UniProt Q14008) reads 0.159
